According to article PMC3853316:
These are yes or no findings as the source states them, for the method shown. Some binding calls cover weakened binding; strength is not graded here. Tags and fused reporters may be left off the sequences shown.

Target: recombinant full-length human MFAP4 without a His6- and V5-tag (human) (UniProt P55083)
Experiment: SEC; analytical Superose 6 10/300 GL, TBS, 10 mM EDTA, 0.05% emulphogen, 0.4 ml/min; unpurified samples (CHO culture supernatant, normal human serum, MFAP4-depleted serum reconstituted with recMFAP4); 1-ml fractions analysed by MFAP4 ELISA

binding: binds
B1: recombinant full-length human MFAP4 without a His6- and V5-tag (protein, UniProt P55083 22-255)
chain: VSGIRGDALERFCLQQPLDCDDIYAQGYQSDGVYLIYPSGPSVPVPVFCDMTTEGGKWTVFQKRFNGSVSFFRGWNDYKLGFGRADGEYWLGLQNMHLLTLKQKYELRVDLEDFENNTAYAKYADFSISPNAVSAEEDGYTLFVAGFEDGGAGDSLSYHSGQKFSTFDRDQDLFVQNCAALSSGAFWFRSCHFANLNGFYLGGSHLSYANGINWAQWKGFYYSLKRTEMKIRRA
